Experimental findings from PMC7819943, “Rice protein-binding microarrays: a tool to detect cis-acting elements near promoter regions in rice” are described below.

The list shows a part of the results.

The assay concerns the target T1, OsSMF1 (Oryza sativa, UniProt Q6ZLB0 1-436).
T1 sequence: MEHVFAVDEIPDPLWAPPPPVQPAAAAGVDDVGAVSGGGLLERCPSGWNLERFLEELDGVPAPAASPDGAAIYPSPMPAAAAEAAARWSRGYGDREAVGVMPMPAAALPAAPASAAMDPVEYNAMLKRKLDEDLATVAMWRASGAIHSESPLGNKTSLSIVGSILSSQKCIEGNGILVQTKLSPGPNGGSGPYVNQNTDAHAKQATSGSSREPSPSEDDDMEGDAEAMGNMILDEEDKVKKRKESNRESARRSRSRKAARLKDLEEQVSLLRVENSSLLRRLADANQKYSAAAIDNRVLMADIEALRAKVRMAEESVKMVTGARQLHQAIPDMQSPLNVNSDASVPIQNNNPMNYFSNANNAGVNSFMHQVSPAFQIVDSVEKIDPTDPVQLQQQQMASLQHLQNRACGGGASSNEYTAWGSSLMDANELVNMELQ
As to the kind of experiment: protein-binding microarray (RPBM); PBS, 2% BSA, 51.3 ng/ul salmon testes DNA, 50 uM zinc acetate, 200 nM TF, 25 C, 1 h; high values mean tight binding. Conditions: protein: recombinant; tags: N-terminal polyhistidine and DsRed monomer fusion (pET32a); chain copies: 2; label: CyDye5-dUTP incorporated in the synthesized complementary strand; 3' TTTTT single-stranded linker to array surface; dsDNA, one strand shown. Put shortly: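 A custom Agilent array was converted to double-stranded form by primer extension with Cy5-dUTP and blocked with 2% BSA. Protein at 200 nM in PBS with 2% BSA, salmon testes DNA and 50 µM zinc acetate was applied for 1 h at 25 °C, followed by washing. The proteins were polyhistidine–DsRed N-terminal fusions of transcription factors, expressed in E. coli BL21-CodonPlus and Ni–NTA-purified. The binding signal is per-feature fluorescence intensity (arbitrary units) from an Axon 4000B scanner.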
With “CCTCCCAATTTGATCATGCATGGGTCCACATGCTCAATGACGGAGTCACCTAGTGCAG”, the binding signal was 3700 fluorescence intensity (a.u.).
For “TTGTTGGCCGGTTACCACCTTTTCACAGTCACTGCACTGCCGGAGTCACCTAGTGCAG”, the binding signal is 3970 fluorescence intensity (a.u.).
Under “AATCGATGAGGCCCTACGTGTGTTTTCTGTCAGCTTGCTACGGAGTCACCTAGTGCAG” stands 5470 fluorescence intensity (a.u.); under “ACAGTGCAACAGTCAAAATGATCTGCAAAGAAAGTCAATGCGGAGTCACCTAGTGCAG”, 3650 fluorescence intensity (a.u.); under “CGCGATCCTGACAGTATATTCTATCTTTGACACAGTCTGACGGAGTCACCTAGTGCAG”, 3320 fluorescence intensity (a.u.).
Turning to “AGACTTCGGTTTGGCGACGCAACGCAACGCAGCGCAGCCGCGGAGTCACCTAGTGCAG”, the binding signal is 3610 fluorescence intensity (a.u.).
Take “GGTATCCAGCCTTTCGGTCACCCGGACGCCACTGAAGATTCGGAGTCACCTAGTGCAG”: the binding signal is 22800 fluorescence intensity (a.u.).
With “GAGACTATTTGTCCCCTTGTGGTTACATGTCACTCAAATGCGGAGTCACCTAGTGCAG”, the binding signal was 3550 fluorescence intensity (a.u.).
For “GCTATCGGTCGCCACGTGGAGCCCAGCTGTCCACGTACAACGGAGTCACCTAGTGCAG”, the binding signal is 14700 fluorescence intensity (a.u.).
For the sequence “GGCGACGCCATCCGCGTCAACGTAGGAGAACATCCCCACTCGGAGTCACCTAGTGCAG”, the binding signal is 3380 fluorescence intensity (a.u.).
Next, “AGACCCAAGTCACTCTCTCCGCTCCAGTCTCCACTCTCCACGGAGTCACCTAGTGCAG”: 23100 fluorescence intensity (a.u.).
With “GAGCCGCTGCGGCGGGCACAACACAGCGCGTGCGTGGGTGCGGAGTCACCTAGTGCAG”, the binding signal was 32600 fluorescence intensity (a.u.).
Turning to “TCGGTTTTGTGATCGAGGGGTCGATGACTCAATCATAAGGCGGAGTCACCTAGTGCAG”, the binding signal is 5220 fluorescence intensity (a.u.).
Turning to “GGCCGCAGCCGCGTTGGCACGCGGCCCAACAACGCAGTCACGGAGTCACCTAGTGCAG”, the binding signal is 4390 fluorescence intensity (a.u.).
Turning to “TTCGTCATAGTGTGGAACGACACATCATGAAGATTAGAGACGGAGTCACCTAGTGCAG”, the binding signal is 3630 fluorescence intensity (a.u.).
Turning to “CCTCCGCCTCCTCCCGCGCGCTGCGTACGTGACAGCGCCACGGAGTCACCTAGTGCAG”, the binding signal was 3500 fluorescence intensity (a.u.).
Next, “TGCACAAGTCGATCGACTTGAATTCCTGCACATGAGTCACCGGAGTCACCTAGTGCAG”: 6120 fluorescence intensity (a.u.); “TTAACGGTTGGTAATTAGCTACGTGGATCAACGACGATACCGGAGTCACCTAGTGCAG”: 6000 fluorescence intensity (a.u.).
For “GCGTCCTGCAACATCTGACCAAGATCATCCGCAACGTCGTCGGAGTCACCTAGTGCAG”, the binding signal was 3350 fluorescence intensity (a.u.).
In the case of “AGATAAGATTTATGTTCCATGTTTACTTTGTTATTTAGGACGGAGTCACCTAGTGCAG”, the binding signal is 5430 fluorescence intensity (a.u.).
Take “TAAATTGACAAATTCAACCTAGGCCTGGACTTATTTGGCGCGGAGTCACCTAGTGCAG”: the binding signal is 11500 fluorescence intensity (a.u.).
Next, “ATATATATATTTAAGTGAATTTTATTTTAACTAAACCATACGGAGTCACCTAGTGCAG”: 3790 fluorescence intensity (a.u.).
With “TCTCTCTTACCGTCATGCTGTCTCAACAGTATATTCAAATCGGAGTCACCTAGTGCAG”, the binding signal is 3470 fluorescence intensity (a.u.).
For the sequence “AGGCCTCCTTCTCCCGCTGCCGGCGGTATCGCTGGTGGAGCGGAGTCACCTAGTGCAG”, the binding signal was 3940 fluorescence intensity (a.u.).
Consider “CCACAAGGCTGGAACCAGGTATAACAAGCGGAACGCCTCCCGGAGTCACCTAGTGCAG”, for which the binding signal was 36700 fluorescence intensity (a.u.).
On to “TTTTCATCTATAGTCATTGTTACTTATGTTGGAGTAGTATCGGAGTCACCTAGTGCAG”, for which the binding signal is 3380 fluorescence intensity (a.u.).
Under “TTGTTCCTATAGTAGCTCTCTAATCATAATCATAAGAATACGGAGTCACCTAGTGCAG” stands 3410 fluorescence intensity (a.u.); under “CGTTTTGCTGCAGGATATATGGATGAATACGTGTTATACACGGAGTCACCTAGTGCAG”, 3340 fluorescence intensity (a.u.).
Take “GCAGTTGGTGACTTGGTTCGTTCCGCACACTCCACTCCACCGGAGTCACCTAGTGCAG”: the binding signal was 3150 fluorescence intensity (a.u.).
As for “GGGGATGGGGATTCGATGTGTCTATGCGTGGGCCCTGGTTCGGAGTCACCTAGTGCAG”, the binding signal is 3860 fluorescence intensity (a.u.).
With “TTTGGTGCGGGGAGCCGTCGATTCGCCACGAAACCCAACCCGGAGTCACCTAGTGCAG”, the binding signal is 3480 fluorescence intensity (a.u.).
Next, “CAAGAAACCAAGAACGCTTCTTGGCGTACGTGTCTGCAAACGGAGTCACCTAGTGCAG”: 5700 fluorescence intensity (a.u.).
“TACTACCCGTCGTCGTCGTCATCTTCTTCTTCCTGGTATTCGGAGTCACCTAGTGCAG”: the binding signal was 3600 fluorescence intensity (a.u.).
With “GGTCCAGCTTGTCCCATTGATCTCTCTTCACTGAAATCCACGGAGTCACCTAGTGCAG”, the binding signal was 12300 fluorescence intensity (a.u.).
As for “AAATTAGAGATGATGTGGCTGAAAAGTTATGTGTATGACACGGAGTCACCTAGTGCAG”, the binding signal was 7570 fluorescence intensity (a.u.).
“CTTTGCCTCGCCACCGCCCGAGCGGCGCGTCGGCAAAGCCCGGAGTCACCTAGTGCAG”: the binding signal is 3430 fluorescence intensity (a.u.).
Next, “TCGATAACGAGACGCCTGTGGTGATTTCGTCGATTAGTACCGGAGTCACCTAGTGCAG”: 4650 fluorescence intensity (a.u.); “AAATGCATCTCTCAACAACAGTGCTTATAAAAGGACAATTCGGAGTCACCTAGTGCAG”: 4080 fluorescence intensity (a.u.); “CACCTAGAGAGTGTCCATGCTACGTCACGCGTGGATGAGACGGAGTCACCTAGTGCAG”: 8980 fluorescence intensity (a.u.).
Next, “CAAAATTCTTCTCCTTCCTACGGCCTACGGGTGAAAAGGGCGGAGTCACCTAGTGCAG”: 18500 fluorescence intensity (a.u.).
Take “GTTCCTGGTTTGTGTGACACGTGGGAGAGGGGAATAGTACCGGAGTCACCTAGTGCAG”: the binding signal is 4900 fluorescence intensity (a.u.).
Next, “CAGTTTTGTGACCGAATTATGATGCAAAATTTCCACAGGGCGGAGTCACCTAGTGCAG”: 3910 fluorescence intensity (a.u.).
